From the supplement of paper PMC10849652
Some of the results follow.

Amino acid sequences for entries named in this document (tags omitted). A change or cut given only in a name is not applied to a line headed by its entry.
UniProt Q8IY92: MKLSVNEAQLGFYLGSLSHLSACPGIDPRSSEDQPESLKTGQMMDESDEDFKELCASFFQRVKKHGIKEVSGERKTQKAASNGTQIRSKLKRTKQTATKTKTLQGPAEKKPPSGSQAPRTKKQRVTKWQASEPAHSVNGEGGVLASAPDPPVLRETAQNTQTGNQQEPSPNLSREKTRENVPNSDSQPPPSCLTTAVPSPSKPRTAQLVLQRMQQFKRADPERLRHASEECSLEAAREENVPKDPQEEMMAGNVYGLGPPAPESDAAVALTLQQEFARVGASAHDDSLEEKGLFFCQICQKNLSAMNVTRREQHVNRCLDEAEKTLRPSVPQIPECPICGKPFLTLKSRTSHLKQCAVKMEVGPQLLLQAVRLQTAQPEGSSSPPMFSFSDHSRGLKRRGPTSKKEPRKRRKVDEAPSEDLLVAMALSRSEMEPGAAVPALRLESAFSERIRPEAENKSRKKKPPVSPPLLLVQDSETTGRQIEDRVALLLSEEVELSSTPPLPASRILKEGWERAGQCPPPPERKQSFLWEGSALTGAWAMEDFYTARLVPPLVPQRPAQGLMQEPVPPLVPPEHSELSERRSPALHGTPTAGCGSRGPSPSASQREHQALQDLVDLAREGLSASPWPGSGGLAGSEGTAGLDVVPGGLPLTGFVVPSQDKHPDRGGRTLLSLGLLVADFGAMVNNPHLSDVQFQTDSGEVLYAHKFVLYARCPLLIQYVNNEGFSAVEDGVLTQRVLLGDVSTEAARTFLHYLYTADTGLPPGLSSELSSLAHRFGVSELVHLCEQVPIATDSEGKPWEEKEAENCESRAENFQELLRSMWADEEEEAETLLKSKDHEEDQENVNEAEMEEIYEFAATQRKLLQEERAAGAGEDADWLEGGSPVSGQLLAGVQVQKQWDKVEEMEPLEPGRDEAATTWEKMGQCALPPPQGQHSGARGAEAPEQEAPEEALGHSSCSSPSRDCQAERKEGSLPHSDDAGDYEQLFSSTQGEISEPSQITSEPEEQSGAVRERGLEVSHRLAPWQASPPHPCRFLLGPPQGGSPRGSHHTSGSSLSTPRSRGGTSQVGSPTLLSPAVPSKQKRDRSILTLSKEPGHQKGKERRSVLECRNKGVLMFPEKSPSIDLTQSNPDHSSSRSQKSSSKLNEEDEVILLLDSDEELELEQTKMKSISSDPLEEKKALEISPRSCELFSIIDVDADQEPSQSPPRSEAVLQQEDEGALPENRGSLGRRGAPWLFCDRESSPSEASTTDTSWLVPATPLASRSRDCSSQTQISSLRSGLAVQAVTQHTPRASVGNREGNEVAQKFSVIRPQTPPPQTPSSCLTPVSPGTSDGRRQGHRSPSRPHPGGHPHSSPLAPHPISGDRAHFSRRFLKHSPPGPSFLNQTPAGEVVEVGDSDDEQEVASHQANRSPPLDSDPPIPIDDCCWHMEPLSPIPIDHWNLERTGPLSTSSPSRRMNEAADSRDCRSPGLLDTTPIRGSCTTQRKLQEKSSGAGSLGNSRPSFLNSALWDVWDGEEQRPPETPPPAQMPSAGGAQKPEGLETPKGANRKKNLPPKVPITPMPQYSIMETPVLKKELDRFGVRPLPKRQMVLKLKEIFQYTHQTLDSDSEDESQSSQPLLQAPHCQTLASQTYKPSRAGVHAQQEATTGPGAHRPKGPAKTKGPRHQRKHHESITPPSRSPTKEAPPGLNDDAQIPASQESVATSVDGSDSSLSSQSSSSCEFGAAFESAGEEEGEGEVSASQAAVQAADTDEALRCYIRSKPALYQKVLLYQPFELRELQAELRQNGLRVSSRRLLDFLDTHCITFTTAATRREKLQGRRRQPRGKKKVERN
UniProt Q8N755: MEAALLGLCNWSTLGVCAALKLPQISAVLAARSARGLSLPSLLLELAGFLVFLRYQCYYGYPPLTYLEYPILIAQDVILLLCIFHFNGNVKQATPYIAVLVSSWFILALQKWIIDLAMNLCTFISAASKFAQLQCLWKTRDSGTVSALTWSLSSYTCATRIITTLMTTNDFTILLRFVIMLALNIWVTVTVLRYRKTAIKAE
UniProt P78383: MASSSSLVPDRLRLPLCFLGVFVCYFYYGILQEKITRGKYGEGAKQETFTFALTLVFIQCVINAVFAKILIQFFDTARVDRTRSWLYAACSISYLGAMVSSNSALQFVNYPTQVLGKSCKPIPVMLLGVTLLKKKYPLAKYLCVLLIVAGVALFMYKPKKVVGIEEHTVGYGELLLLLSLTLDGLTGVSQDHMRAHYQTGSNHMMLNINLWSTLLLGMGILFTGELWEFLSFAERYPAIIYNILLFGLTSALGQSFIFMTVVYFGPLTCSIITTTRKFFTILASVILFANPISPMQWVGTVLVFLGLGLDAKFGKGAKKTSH
UniProt Q99717: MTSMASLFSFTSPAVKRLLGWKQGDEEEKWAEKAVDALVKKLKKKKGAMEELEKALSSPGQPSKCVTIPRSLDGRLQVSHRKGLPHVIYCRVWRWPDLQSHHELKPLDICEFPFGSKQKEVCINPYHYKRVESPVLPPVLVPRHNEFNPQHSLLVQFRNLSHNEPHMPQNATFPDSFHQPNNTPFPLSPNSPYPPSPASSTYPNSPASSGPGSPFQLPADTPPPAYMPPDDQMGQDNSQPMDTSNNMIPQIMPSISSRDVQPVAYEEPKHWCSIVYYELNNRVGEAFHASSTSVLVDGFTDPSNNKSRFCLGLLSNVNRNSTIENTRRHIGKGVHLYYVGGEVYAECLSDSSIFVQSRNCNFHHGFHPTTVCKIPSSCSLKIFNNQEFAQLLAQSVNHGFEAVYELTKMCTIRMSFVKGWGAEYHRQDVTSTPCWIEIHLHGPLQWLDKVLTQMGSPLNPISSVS
UniProt P84022, whole entry, looked up: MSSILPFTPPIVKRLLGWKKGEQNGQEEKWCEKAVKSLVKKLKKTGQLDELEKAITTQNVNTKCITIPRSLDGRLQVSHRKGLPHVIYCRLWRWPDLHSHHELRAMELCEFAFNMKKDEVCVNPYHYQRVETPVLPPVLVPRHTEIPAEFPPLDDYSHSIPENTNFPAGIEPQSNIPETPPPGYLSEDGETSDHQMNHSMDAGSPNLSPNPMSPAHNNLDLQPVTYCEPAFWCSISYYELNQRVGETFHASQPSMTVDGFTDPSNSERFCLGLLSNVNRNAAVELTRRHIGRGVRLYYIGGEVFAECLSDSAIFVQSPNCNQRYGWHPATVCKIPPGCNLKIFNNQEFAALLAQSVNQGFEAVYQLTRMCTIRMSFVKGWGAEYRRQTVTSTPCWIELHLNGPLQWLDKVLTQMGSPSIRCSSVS
UniProt Q0VAQ4: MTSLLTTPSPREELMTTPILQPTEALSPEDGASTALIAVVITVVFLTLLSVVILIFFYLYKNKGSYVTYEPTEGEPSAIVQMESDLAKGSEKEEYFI
UniProt Q9BRV3: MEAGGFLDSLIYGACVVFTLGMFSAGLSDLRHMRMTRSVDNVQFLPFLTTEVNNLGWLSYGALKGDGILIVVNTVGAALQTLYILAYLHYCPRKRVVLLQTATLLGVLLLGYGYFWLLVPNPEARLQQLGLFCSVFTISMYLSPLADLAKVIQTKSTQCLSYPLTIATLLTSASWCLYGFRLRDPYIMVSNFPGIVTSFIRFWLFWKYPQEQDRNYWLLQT
UniProt Q6J4K2: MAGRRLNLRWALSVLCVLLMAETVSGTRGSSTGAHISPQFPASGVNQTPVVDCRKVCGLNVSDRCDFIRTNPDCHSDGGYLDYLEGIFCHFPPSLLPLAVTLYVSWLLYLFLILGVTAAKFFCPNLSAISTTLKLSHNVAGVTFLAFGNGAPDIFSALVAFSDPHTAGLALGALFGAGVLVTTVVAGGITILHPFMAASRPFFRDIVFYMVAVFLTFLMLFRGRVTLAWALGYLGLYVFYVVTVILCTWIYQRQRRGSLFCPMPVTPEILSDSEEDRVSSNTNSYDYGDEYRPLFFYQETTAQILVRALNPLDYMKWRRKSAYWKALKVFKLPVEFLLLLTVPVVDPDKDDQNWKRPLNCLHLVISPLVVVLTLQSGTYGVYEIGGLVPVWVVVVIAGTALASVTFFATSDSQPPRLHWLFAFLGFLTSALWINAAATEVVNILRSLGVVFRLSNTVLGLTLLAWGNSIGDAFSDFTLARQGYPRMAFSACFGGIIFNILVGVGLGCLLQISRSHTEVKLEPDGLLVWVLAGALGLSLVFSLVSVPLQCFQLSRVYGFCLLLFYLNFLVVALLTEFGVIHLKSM
UniProt O94956: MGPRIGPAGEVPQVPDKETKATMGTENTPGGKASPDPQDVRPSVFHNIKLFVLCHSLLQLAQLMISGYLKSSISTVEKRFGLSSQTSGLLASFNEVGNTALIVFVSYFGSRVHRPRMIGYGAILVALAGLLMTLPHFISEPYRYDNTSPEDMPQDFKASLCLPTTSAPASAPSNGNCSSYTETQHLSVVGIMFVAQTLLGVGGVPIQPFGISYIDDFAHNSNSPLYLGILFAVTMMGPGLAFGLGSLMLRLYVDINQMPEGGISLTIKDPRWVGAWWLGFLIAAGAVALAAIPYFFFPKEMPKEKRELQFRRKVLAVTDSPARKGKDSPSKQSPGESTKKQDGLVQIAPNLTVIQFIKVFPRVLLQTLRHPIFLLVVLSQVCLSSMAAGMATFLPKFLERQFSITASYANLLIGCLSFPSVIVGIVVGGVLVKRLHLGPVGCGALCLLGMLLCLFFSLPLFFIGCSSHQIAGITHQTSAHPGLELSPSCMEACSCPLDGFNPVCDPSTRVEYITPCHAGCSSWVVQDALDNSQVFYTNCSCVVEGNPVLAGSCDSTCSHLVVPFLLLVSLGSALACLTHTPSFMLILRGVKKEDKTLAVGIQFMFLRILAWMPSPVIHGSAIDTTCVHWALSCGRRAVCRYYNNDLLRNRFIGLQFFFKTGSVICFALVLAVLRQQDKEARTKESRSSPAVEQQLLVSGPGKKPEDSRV
UniProt Q9Y2D2: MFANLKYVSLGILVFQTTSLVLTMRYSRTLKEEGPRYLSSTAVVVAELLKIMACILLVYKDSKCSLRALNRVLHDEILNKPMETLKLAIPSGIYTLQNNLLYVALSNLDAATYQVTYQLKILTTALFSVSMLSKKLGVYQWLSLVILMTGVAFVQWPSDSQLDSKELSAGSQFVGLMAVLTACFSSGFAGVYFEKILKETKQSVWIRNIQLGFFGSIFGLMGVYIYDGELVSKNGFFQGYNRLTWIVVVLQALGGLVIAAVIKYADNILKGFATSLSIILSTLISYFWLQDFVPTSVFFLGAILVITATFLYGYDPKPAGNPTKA
UniProt P16260: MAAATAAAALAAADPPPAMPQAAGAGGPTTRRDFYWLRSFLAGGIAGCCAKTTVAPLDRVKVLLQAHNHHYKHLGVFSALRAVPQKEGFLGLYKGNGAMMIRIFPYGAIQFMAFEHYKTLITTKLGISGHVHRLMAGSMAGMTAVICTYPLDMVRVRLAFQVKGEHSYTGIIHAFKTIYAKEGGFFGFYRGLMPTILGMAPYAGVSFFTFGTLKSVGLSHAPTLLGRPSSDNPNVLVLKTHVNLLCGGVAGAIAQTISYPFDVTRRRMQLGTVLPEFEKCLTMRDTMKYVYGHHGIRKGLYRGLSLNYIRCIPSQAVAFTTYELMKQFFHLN
UniProt Q86WA9: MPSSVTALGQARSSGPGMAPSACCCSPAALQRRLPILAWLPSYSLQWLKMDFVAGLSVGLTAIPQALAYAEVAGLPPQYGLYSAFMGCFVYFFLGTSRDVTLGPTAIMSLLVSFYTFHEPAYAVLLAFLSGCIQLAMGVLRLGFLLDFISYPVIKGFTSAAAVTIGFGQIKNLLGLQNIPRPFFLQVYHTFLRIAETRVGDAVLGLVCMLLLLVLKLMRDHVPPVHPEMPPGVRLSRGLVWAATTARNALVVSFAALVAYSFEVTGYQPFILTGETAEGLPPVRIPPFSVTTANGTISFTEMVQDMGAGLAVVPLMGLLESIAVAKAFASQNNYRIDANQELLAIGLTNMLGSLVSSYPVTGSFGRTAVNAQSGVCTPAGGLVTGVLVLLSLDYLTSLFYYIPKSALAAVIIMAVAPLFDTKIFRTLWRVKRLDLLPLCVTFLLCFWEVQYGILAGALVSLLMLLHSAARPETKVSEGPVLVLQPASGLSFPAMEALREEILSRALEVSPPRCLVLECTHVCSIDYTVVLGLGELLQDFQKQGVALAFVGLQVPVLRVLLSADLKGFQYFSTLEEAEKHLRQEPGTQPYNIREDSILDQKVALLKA
UniProt Q9BZD2: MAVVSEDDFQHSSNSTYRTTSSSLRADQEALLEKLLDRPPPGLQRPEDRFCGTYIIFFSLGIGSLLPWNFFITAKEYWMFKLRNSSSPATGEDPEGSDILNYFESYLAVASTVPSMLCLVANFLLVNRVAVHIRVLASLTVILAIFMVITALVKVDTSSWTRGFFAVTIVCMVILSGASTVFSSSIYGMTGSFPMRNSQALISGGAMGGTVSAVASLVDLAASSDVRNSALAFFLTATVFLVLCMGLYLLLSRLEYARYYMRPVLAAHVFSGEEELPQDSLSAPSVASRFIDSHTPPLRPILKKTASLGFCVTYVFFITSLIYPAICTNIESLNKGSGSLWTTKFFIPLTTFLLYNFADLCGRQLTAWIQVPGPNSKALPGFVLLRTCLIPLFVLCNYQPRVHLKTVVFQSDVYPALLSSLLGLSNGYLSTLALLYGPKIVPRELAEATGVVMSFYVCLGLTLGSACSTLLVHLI

The targets below were run with C[C@H](Nc1ncnc2nc[nH]c12)c1cc2cccc(Cl)c2c(=O)n1-c1ccccc1 [duvelisib] (assay: log2 fold change, soluble protein after heating vs DMSO (PISA); higher = thermal stabilisation; K562 lysate, 10 uM; active = over 0.2 and 3.5 SD of the protein, either way, in both replicates (recomputed)).
Method in brief: (§1)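 K562 pellets were dounce-homogenised in PBS pH 7.4 with 1 mM MgCl2, and the crude extract at 1 mg/mL protein was treated with 10 μM compound for 30 min. Aliquots were heated for 3 min across 48°C-58°C, pooled, and brought to 0.5% NP-40 at 4°C; soluble protein was the supernatant after 21,000xg for 90 min. Soluble protein was quantified by TMTpro 16plex LC-MS/MS with channel sums equalised, and reported as log2 fold change in thermal stability against DMSO controls, with values from duplicates.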

log2 fold change, inactive:
SLC46A1 (UniProt Q96NT5) -0.015
SLC25A39 (UniProt Q9BZJ4) 0.081
SLX4 (UniProt Q8IY92) 0.155
SLC66A3 (UniProt Q8N755) -0.047
SLC35B1 isoform 2 (UniProt P78383) 0.009
SMAD5 (UniProt Q99717) 0.046
SLC25A36 (UniProt Q96CQ1) -0.122
SLC44A1 (UniProt Q8WWI5) 0.081
SLC40A1 (UniProt Q9NP59) 0.099
SLU7 (UniProt O95391) 0.06
SLC23A2 (UniProt Q9UGH3) -0.015
SMAD3 (UniProt P84022) -0.027
SLC2A13 (UniProt Q96QE2) -0.022
SMAGP (UniProt Q0VAQ4) 0.017
SLC50A1 (UniProt Q9BRV3) 0.126
SLC25A23 isoform 3 (UniProt Q9BV35) 0.059
SLC8B1 (UniProt Q6J4K2) -0.12
SLC66A2 (UniProt Q8N2U9) 0.068

These targets were tested with Cc1cc(Nc2cc(CN3CCOCC3)c3nc(C)c(Cc4ccc(Cl)cc4F)n3n2)n[nH]1 [gandotinib] in the same assay as above.
Method in brief: as §1

log2 fold change, inactive:
SLC46A1 (UniProt Q96NT5) 0.013
SLC39A8 (UniProt Q9C0K1) 0.111
SLC25A39 (UniProt Q9BZJ4) -0.011
SLCO2B1 (UniProt O94956) 0.089
SLC35B1 isoform 2 (UniProt P78383) 0.039
SLC35A3 isoform 2 (UniProt Q9Y2D2) 0.215
SLC25A16 (UniProt P16260) 0.016
SMAD5 (UniProt Q99717) -0.006
SLC25A35 (UniProt Q3KQZ1) 0.051
SLC25A36 (UniProt Q96CQ1) 0.024
SLC44A1 (UniProt Q8WWI5) 0.045
SLC40A1 (UniProt Q9NP59) 0.054
SLU7 (UniProt O95391) 0.255
SLC23A2 (UniProt Q9UGH3) 0.126
SLC26A11 (UniProt Q86WA9) -0.07
SLC41A3 isoform 9 (UniProt Q96GZ6) 0.103
SLC41A1 (UniProt Q8IVJ1) 0.136
SLC2A13 (UniProt Q96QE2) -0.014
SLC39A6 (UniProt Q13433) -0.171
SMAGP (UniProt Q0VAQ4) 0.052
SLFN14 (UniProt P0C7P3) 0.264
SLCO4A1 (UniProt Q96BD0) 0.062
SLC35A1 (UniProt P78382) 0.166
SLC29A3 (UniProt Q9BZD2) 0.032
SLC50A1 (UniProt Q9BRV3) 0.108
SLC25A23 isoform 3 (UniProt Q9BV35) -0.021
SLC8B1 (UniProt Q6J4K2) 0.189
